Measured values published in PubChem BioAssay AID493014 (National Center for Advancing Translational Sciences (NCATS), 2011).
Screen size: about 340,000 compounds; about 170 (0.05%) were called active. Inconclusive means that the source gave no clear call. Such entries were picked first, then a sample of the others. Calls follow the shape of the dose curve; as a rule, active = well fitted inhibition curve with a large enough effect in the signal ratio, with a control signal flat (not every such curve was filed as active); inconclusive = small, poorly fitted or top-dose-only effect, or effect the other way, or a change in a side signal; inactive = flat fitted curve, though single readings scatter; the % refers to the signal ratio. Where the call is inconclusive, the potency comes from a doubtful curve fit.

Experiment: qHTS Assay to Find Inhibitors of Chronic Active B-Cell Receptor Signaling;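 as to activity change, negative = inhibition: plate controls were basal doxycycline-induced cells for no effect and cells given 10 µM MG132 for full effect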
Conditions: ABC-DLBCL IkBa-CBG/CBR reporter, luminescence ratio (green luciferase fused to IkBa over red control in TMD8 lymphoma cells), 4 h; activity change, negative = inhibition: at 46.1 µM (top of the series) unless noted
Outline: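 TMD8 ABC-DLBCL cells carrying doxycycline-inducible green luciferase fused to IkappaBalpha plus unfused red luciferase were exposed to compounds (up to 46 uM) for 4 hrs at 37C. Activity came from the overlap-corrected green/red luminescence ratio.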
Potency is read from the fitted curve at half-maximal effect.

Row | SMILES | Potency | activity change, negative = inhibition
1 | Cc1nc2scc(-c3ccccc3)c2c(=O)n1N=C1C=CC(=O)C=C1 | inconclusive: 22.4 µM [falling, partial curve] | 
2 | O=C(Nc1ccc(Oc2cccnc2)cc1)c1ccccc1F | inconclusive: 35.5 µM [falling, single point] | 
3 | CCOCCCn1c(=NC(=O)c2cccnc2)c(C(=O)OCC)cc2c(=O)n3ccccc3nc21 |  | inactive
4 | COC(=O)c1sccc1N/N=C/c1cccc(OC)c1O | inconclusive: 7.31 µM [falling, partial curve] | 
5 | Cc1ccc(-c2csc(NC(=O)CSc3ncn(-c4ccccc4)n3)n2)cc1 |  | inconclusive: 7.56%
6 | CC1C/C(=N/O)C(C)CN1 (stereo unspecified) | inconclusive: 0.326 µM [rising, partial curve, poor fit] | 
7 | c1csc(-c2ccc(N3CCOCC3)nn2)c1 | inconclusive: 17.8 µM [falling, partial curve, poor fit] | 
8 | O=C(Nc1nc(COc2ccccc2)cs1)C12CC3CC(CC(C3)C1)C2 | inconclusive: 32.6 µM [falling, single point] | 
9 | COc1ccc(-c2nc3sc(CCNC(=O)C(=O)Nc4ccc(C)c(F)c4)c(C)n3n2)cc1 | inconclusive: 12.6 µM [falling, partial curve] | 
10 | CCCCOc1ccc(C(=O)NCCc2ccccc2)cc1 |  | inconclusive: 7.13%
11 | COc1cc(-c2noc(C)c2C#Cc2ccc(N)cc2)cc(OC)c1OC | inconclusive: 3.55 µM [falling, partial curve] | 
12 | CCO[C@@H]1c2c(ccc3ccc(=O)oc23)OC(C)(C)[C@@H]1O |  | inactive
13 | CC(=O)c1sc(Nc2nc(C)cc(C)n2)nc1C |  | inconclusive: -1.04%
14 | CCc1cccc(CC)c1NC(=S)NC(C)c1ccccc1 (stereo unspecified) |  | inactive
15 | CCOc1ccccc1Nc1nnc(-c2cc3cc(Cl)ccc3oc2=O)s1 | inconclusive: 1.41 µM [falling, full curve] | 
16 | COc1cc(OC)cc(C(=O)Nc2ccc3c(c2)OCCO3)c1 | inconclusive: 22.4 µM [falling, partial curve] | 
17 | Cc1cccc(NC(=O)CSCC(=O)N2CCN(Cc3ccc4c(c3)OCO4)CC2)c1 |  | inactive
18 | COCCCn1c(=O)c2ccccc2n(Cc2cc(C(=O)OC)ccc2OC)c1=O | inconclusive: 11.2 µM [falling, partial curve, poor fit] | 
19 | CCn1cc(C(=O)O)c(=O)c2cc(F)c(N3CCN(C(=S)NC(=O)c4ccccc4)CC3)cc21 |  | inconclusive: -0.27%
20 | COc1cc(CNc2ccc(O)cc2)cc(Br)c1OCc1ccccc1F |  | inactive
21 | O=C(NCc1ccc2c(c1)OCO2)c1ccc2c(c1)C(=O)N(Cc1cccnc1)C2=O |  | inconclusive: -1.35%

Row | SMILES | Potency | activity change, negative = inhibition
22 | CC(=O)C1=C(c2ccc(Cl)c(Cl)c2)N(C(C)=O)n2cnnc2S1 | inconclusive: 12.6 µM [cytotoxic, partial curve] | 
23 | O=C(CNS(=O)(=O)c1ccc([N+](=O)[O-])cc1)N/N=C\c1ccc(O)cc1 |  | inactive
24 | O=C(Nc1ccc2c(c1)OCO2)c1cnc2n(c1=O)CCS2 |  | inactive
25 | CC(=O)NCc1ccc(C(=O)CSc2nnc(C3CC3)n2C2CC2)cc1 |  | inconclusive: -4.28%
26 | Cc1ccn2c(NC3CCCCC3)c(C(C)C)nc2c1 | inconclusive: 20.6 µM [falling, single point] | 
27 | O=C(O)c1ccc(N2C(=O)c3cccnc3C2=O)cc1 |  | inconclusive: -20.1%
28 | O=C1C(c2ccccc2)SC(=Nc2ccccc2)N1S(=O)(=O)c1ccccc1 (stereo unspecified) | inconclusive: 18.4 µM [falling, partial curve] | 
29 | Cc1cc(NC(=O)Cn2nc(C)c([N+](=O)[O-])c2C)no1 |  | inactive
30 | CN(CC(=O)Nc1ccc(F)cc1)C(=O)CCc1ccccc1 |  | inactive
31 | COCCN(C(=O)COC(=O)c1ccccc1Cc1ccccc1)c1c(N)n(Cc2ccccc2)c(=O)[nH]c1=O |  | inconclusive: -8.06%
32 | COc1cc(N2CCCC2)c(OC)cc1/C=C(/C#N)c1cccc(Br)c1 |  | inconclusive: -1.09%
33 | CC(C)(C)c1ccc(C(=O)/C(C#N)=C/c2cccs2)cc1 |  | inactive
34 | CCOC(=O)c1nc2cc3n(c(C)c-2c1C)C(C)C(C)=C3C (stereo unspecified) | inconclusive: 29.1 µM [rising, single point] | 
35 | COc1ccc(OCCOc2ccc(/C=C3\C(=N)N4N=C(C)SC4=NC3=O)cc2)cc1 |  | inconclusive: 4.97%
36 | Cc1ccc(C(=O)N2N=C(c3ccc(Br)cc3)CC2c2ccccc2O)cc1 (stereo unspecified) | inconclusive: 31.6 µM [falling, single point] | 
37 | CCCCN(CCCC)CCNC(=O)CN1C(=O)COc2ccc(S(=O)(=O)N3CCC(C)CC3)cc21 |  | inactive
38 | O=C(/C=C/c1ccc(O)c(O)c1)O[C@H](Cc1ccc(O)c(O)c1)C(=O)O |  | inactive
39 | CCOc1ccc(C(=O)N2CCCC(c3nc(-c4ccc(C)o4)no3)C2)cc1 (stereo unspecified) |  | inactive
40 | CCOC(=O)CC1=NN(c2ccccc2)C(=O)/C1=C\c1ccc(OC)cc1OC |  | inactive
41 | Cc1nc(N)sc1-c1csc(Nc2cccc(C(=O)O)c2)n1 | inconclusive: 31.6 µM [falling, single point] | 
42 | Clc1ccc(COc2ccccn2)c(Cl)c1 |  | inconclusive: 2.44%

Row | SMILES | Potency | activity change, negative = inhibition
43 | O=C(Nc1ccc(Cl)cc1)Nc1ccc(Oc2cccnc2)nc1 |  | inconclusive: 14.7%
44 | COc1ccc(-c2noc(CCC(=O)N3CCN(c4cccc(F)c4)CC3)n2)cc1 |  | inactive
45 | O=C1c2cccnc2C(Nc2ccc(S(=O)(=O)N3CCCCCC3)cc2)N1Cc1ccccc1 (stereo unspecified) |  | inconclusive: -4.13%
46 | COc1cc(CCC(=O)OCC(=O)Nc2ccccc2C#N)cc(OC)c1OC |  | inactive
47 | CN(C)CCNC(=O)C1(O)c2cc(Br)ccc2NC(=O)N1c1ccc(Cl)cc1 (stereo unspecified) |  | inconclusive: 7.14%
48 | O=C(Nc1ccc(F)cc1)Nc1ccc(N2CCOCC2)c2nonc12 |  | inactive
49 | CCCCn1c(N)c(N(CCOC)C(=O)c2ccc(N3CCCC3=O)cc2)c(=O)[nH]c1=O |  | inconclusive: 3.01%
50 | CCN(CC)CCNC(=O)Cn1c(-c2ccccn2)nc2ccccc21 |  | inconclusive: 9.36%
51 | O=C(Nc1cccc(/C=C/c2nc3ccccc3c(=O)[nH]2)c1)c1ccccc1Cl |  | inconclusive: -0.893%
52 | COc1ccc(CCNC(=O)C2CC(c3cccc(F)c3)=NO2)cc1 (stereo unspecified) |  | inconclusive: -2.38%
53 | Cc1cc2nn(-c3ccc(F)cc3)nc2cc1N |  | inconclusive: -0.975%
54 | CCOC(=O)C1CCN(C(=O)COc2ccc([N+](=O)[O-])cc2)CC1 |  | inconclusive: -16.2%
55 | Cc1ccnc(SCC(=O)N2CCc3ccccc3C2)n1 |  | inconclusive: 12.9%
56 | COc1ccccc1NC1=NCC(=O)N1Cc1ccccc1 | inconclusive: 8.91 µM [falling, partial curve] | 
57 | O=C(COc1ncnc2sccc12)NC1CCS(=O)(=O)C1 (stereo unspecified) | inconclusive: 17.8 µM [falling, partial curve] | 
58 | CCOC(=O)c1n[nH]n2c1nc(=O)c1ccccc12 | inconclusive: 11.2 µM [falling, partial curve] | 
59 | CCC(=O)N(CCC1(C(C)C)CCOC(C)(C)C1)C(C)c1cccs1 (stereo unspecified) |  | inconclusive: 3.87%
60 | CC(C)c1nnc(NC(=O)C2CCCCC2)s1 |  | inconclusive: -19.1%
61 | Cc1cccc(NC(=O)C(C)n2cc([N+](=O)[O-])cn2)n1 (stereo unspecified) |  | inconclusive: 2.22%
62 | Cc1ccc(NC(=S)N2CCCCC2)cc1C |  | inconclusive: 11.5%
63 | Cc1ccc(NC(=O)c2ccccc2F)nc1 | inconclusive: 29.1 µM [falling, single point] | 

Quoted at random: 3 records from the list.
Row | SMILES | Potency | activity change, negative = inhibition
48 | O=C(Nc1ccc(F)cc1)Nc1ccc(N2CCOCC2)c2nonc12 |  | inactive
55 | Cc1ccnc(SCC(=O)N2CCc3ccccc3C2)n1 |  | inconclusive: 12.9%
63 | Cc1ccc(NC(=O)c2ccccc2F)nc1 | inconclusive: 29.1 µM [falling, single point] | 

Further compounds follow:

Row | SMILES | Potency | activity change, negative = inhibition
64 | Cc1onc(-c2ccccc2)c1C(=O)Nc1ccc(Br)cc1Cl |  | inconclusive: -0.655%
65 | C=CCn1c(CNc2ccc(C)cc2)nnc1SCC(=O)N/N=C/c1ccc(O)cc1 |  | inconclusive: 0.0477%
66 | CCCn1c(N)c(C(=O)CN(C)CC(=O)Nc2cc(C)ccc2C)c(=O)[nH]c1=O |  | inactive
67 | COc1ccc(CN=C2NN=C(c3ccccc3)CS2)cc1 | inconclusive: 31.6 µM [falling, partial curve] | 
68 | COc1cccc(CNC23CC4CC(CC(C4)C2)C3)c1OCc1ccccc1 | inconclusive: 20 µM [falling, partial curve, poor fit] | 
69 | C#CCOCCOCCOCCNc1nc(N2CCOCC2)nc(N2CCN(C(=O)[C@H](CCCCN)n3cc([C@@H](N)CC(C)C)nn3)CC2)n1 |  | inconclusive: 2.74%
70 | CN(C)c1ccc(NC(N)=S)cc1 |  | inconclusive: -1.84%
71 | COc1ccc(C(=O)NC(C)CCc2ccccc2)c(O)c1 (stereo unspecified) |  | inactive
72 | CCCCC(=O)OCC(=O)N1N=C(c2c[nH]c3ccccc23)C(O)C1c1ccc(OC)cc1 (stereo unspecified) |  | inconclusive: 0.406%
73 | Cc1c(C#N)c(N=CN(C)C)c(C(=O)c2ccc(Br)cc2)n1-c1ccccc1 |  | inconclusive: 19.7%
74 | O=c1c(Cc2ccccc2)c(O)c2cccc3c4c(n1c23)CCCC4 |  | inconclusive: 3.19%
75 | Cn1ncc(C(=O)Nc2ccc(Cl)cc2)c1C(F)(F)F |  | inconclusive: -6.78%
76 | COc1cccc(C(=O)Oc2c(CN3CCOCC3)cc(Cl)c3cccnc23)c1 | inconclusive: 1.3 µM [falling, partial curve, poor fit] | 
77 | CSc1ncccc1C(=O)NCCc1ccccc1 |  | inactive
78 | COc1ccc(C(=O)NCCCn2ccnc2)cc1 |  | inactive
79 | Cc1ccc(C2=NN(C(=O)CCC(=O)O)C(c3cccc([N+](=O)[O-])c3)C2)cc1 (stereo unspecified) |  | inconclusive: 8.62%
80 | CCn1c(SCC(=O)Nc2nccs2)nnc1-c1ccc(C)cc1 |  | inconclusive: -15.4%
81 | C/C(=N\Nc1cccc2cccnc12)c1ccc(C)cc1 | inconclusive: 25.1 µM [falling, single point] | 
